# Library screen at single concentrations

Measurements from “University of Dundee, Small-Polar-MMV Screening Library” (2021), ChEMBL document CHEMBL3988442.

T. brucei: 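Whole-parasite assay of Trypanosoma brucei over 72 hours; the read-out is not stated. Compounds at 30 µM. The record gives no direction; compounds that gave an IC50 in retests scored well above the rest, so higher reads as stronger inhibition. Values scatter widely below zero; nearly all retest evidence comes from the higher of the two concentrations used. About 64,000 compounds were tested under these conditions; 1.5% (about 940) showed 50% or more at least once.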
Toxoplasma: 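Assay of Toxoplasma gondii numbers, read through their beta-galactosidase reporter with a colour substrate. Compounds at 10 µM. The record gives no direction; the compounds picked for IC50 retests had high values, so higher reads as fewer parasites. About 67,000 compounds were tested under these conditions; 0.38% (about 260) showed 50% or more at least once.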

Values are the deposited “Percent Effect”, in %. The controls that fix the scale are not given in the record; negative values are as filed. The compounds are a random part of those screened. A dash means the value is not listed here; it may have been measured.

SMILES,T. brucei,Toxoplasma
O=C(CCCN1CCCCC1)N1CCC(c2nnc[nH]2)CC1,11.18,7.943
CCc1nc(NS(=O)(=O)c2ccc(F)cc2Cl)no1,-4.749,-12.17
O=C(NS(=O)(=O)c1ccccc1C(F)(F)F)c1cccc2c1OCCO2,-22.16,7.045
Cc1cc(C(=O)NCc2ccc(F)cc2)c2c(C3CCNC3)noc2n1 (centres unmarked),-,5.032
CC(NC(=O)N1CCCN(CC(F)F)CC1)c1ccco1 (centres unmarked),-6.229,11.1
CCn1c(C)cc(C(=O)N2CCCC(n3nc(C)nc3C)C2)c1C (centres unmarked),-16.64,-5.639
O=C(CCc1ccsc1)N1CCC(Cc2ccc(CO)cc2)C1 (centres unmarked),-10.67,5.292
CN(C)C(=O)C(C)(C)c1ccc2c(c1)OCCO2,-33.87,-4.452
CC(C)c1ncc2c(n1)CN(Cc1nc(-c3ccco3)no1)CC2,7.094,-2.17
[H][C@@]12CCN(C(=O)c3cscn3)[C@]1([H])CN(S(C)(=O)=O)C2,-50.02,23.61
O=C(NCCO)C1CN(c2cncnc2)CCO1 (centres unmarked),-114.9,-0.1895
O=C(O)C(F)(F)F.[H][C@@]12CCN(Cc3c(C)noc3C)C[C@@]1([H])[C@H](C(=O)NCC1CC1)CCO2,-13.96,1.816
Cc1nc2n(n1)CC(NCc1ccccc1OCC(=O)N(C)C)CC2 (centres unmarked),11.76,-10.91
CCc1cnc(N)nc1N[C@@H](C)c1ncccc1C,-11.12,-4.555
CCOc1ccccc1NC(C)C(=O)N(C)Cc1cccc(F)c1 (centres unmarked),-93.24,2.908
Cc1nc(-c2ccccc2)ccc1C(=O)N1CCn2c(C)nnc2C1,9.658,0.7203
Cc1cnn(CC2CCCCN2CC(=O)NCc2ccccn2)c1 (centres unmarked),11.62,1.86
CC(C)c1nn(C)c(Cl)c1CNCc1ccc(N(C)C)nc1.Cl,12.78,-6.394
COc1ccc(CN2CCc3sccc3C2C)cc1CN1CCOCC1.Cl (centres unmarked),-20.22,32.46
Cc1cc(N2CCCC(O)CC2)n2nc(C)c(C)c2n1 (centres unmarked),-35.62,7.793
O=C(O)C(F)(F)F.[H][C@@]12COC[C@@H](CC(=O)N3CCOCC3)[C@]1([H])CN(Cc1ccc(C)s1)C2,-11.98,-12.75
COc1cc(CSc2nnc(C)n2CC(N)=O)ccc1SC,-33.45,2.591
COc1nn(C)c2c1CCCN(C(=O)c1ccccc1)C2,-23.93,-2.417
[H][C@]12CC[C@]([H])(CN(C(C)=O)C1)N(Cc1ccc(Cn3cccn3)cc1)C2,-19.13,1.598
O=C(CCn1c(=O)oc2ccccc21)NCC(O)c1ccc(F)c(F)c1 (centres unmarked),-22.69,8.57
COc1ccc(F)cc1-c1nc2c([nH]1)c(C1CC1)nn2C,-3.448,5.615
Cn1cc(CNC(=O)c2cc3c(s2)CCCCC3)cn1,7.355,-2.945
Cc1nc(CN2CCc3nn(C(C)C)c(=O)cc3C2)oc1C,-46.01,-4.583
[H][C@@]12CS(=O)(=O)C[C@]1([H])N(CCCOc1ccccc1)CCN2C(=O)N(C)C,0.979,-1.556
O=C1CCC(CCC(=O)N2CCC2c2cccs2)=NN1 (centres unmarked),-21.18,19.98
O=C(CCS(=O)(=O)C1CCCC1)NCCc1ccc2c(c1)OCCO2,5.527,-1.157
Cc1nn(Cc2ccc(C(=O)NC3CCS(=O)(=O)C3)cc2)c(C)c1Br (centres unmarked),-,4.708
CC(C)CCC(=O)NCc1ccc(N2CCCCC2)cc1,-13.58,-4.851
O=C(O)Cn1nc(C2CC2)c2c(-c3ccco3)ccnc21,-22.72,-11.29
Cc1ccc2[nH]c(C(=O)N3CCCC3Cn3cccn3)cc2c1 (centres unmarked),48.58,-11.45
COCCCNC(=O)c1cc(C(C)C)nc(N2CCCCCC2)n1,-8.445,6.397
CC(C)C(=O)NCCNC(=O)CCOc1cccc(F)c1,-,-8.096
[H][C@]12CC[C@]([H])(CN(S(=O)(=O)CCC)C1)N(Cc1cscn1)C2=O,-40.58,-37.48
Cc1cccc(CS(=O)(=O)c2nnc([C@@H](N)Cc3ccccc3)o2)c1.Cl,-28.34,8.156
COc1c(C(N)=O)cn(C)c1-c1nc2cc(NC(C)=O)ccc2n1C,-24.35,14.38
O=C(Cc1ccc2c(c1)OCCCO2)Nc1nnn[nH]1,-24.06,3.51
Cc1cc(C(=O)NC2(C#N)CCCC2)c(C)n1-c1cccnc1,-13.68,-5.627
CN1C(=O)C(c2cccnc2)CC12CCN(Cc1nccs1)CC2 (centres unmarked),-31.15,8.853
CCN(CC1CCOC1)C(=O)c1cc(F)ccc1N1CCN(C)CC1 (centres unmarked),1.189,29.29
CC(C(=O)Nc1ccc(N2CCCCC2)nc1)n1ccnc1 (centres unmarked),-14.39,-30.03
Cc1ccccc1Cc1cnc(NC(=O)C2CNC(=O)N2)s1 (centres unmarked),10.53,1.294
Cc1ncsc1C(=O)NCCNC(=O)c1cccs1,-,-1.799
CC(C)(O)CN1CCN(C(=O)c2cccc3cccnc23)CC1,-0.1314,0.1565
CC(=O)CCCC(=O)N(Cc1ccsc1)CC(C)C,3.833,-2.91
CNC(=O)C1CCCCN1C(=O)c1csc(-c2ccc(C)cc2)n1 (centres unmarked),-3.569,2.709

Repeated from the top, 6 entries:

SMILES,T. brucei,Toxoplasma
O=C(CCCN1CCCCC1)N1CCC(c2nnc[nH]2)CC1,11.18,7.943
CCc1nc(NS(=O)(=O)c2ccc(F)cc2Cl)no1,-4.749,-12.17
O=C(NS(=O)(=O)c1ccccc1C(F)(F)F)c1cccc2c1OCCO2,-22.16,7.045
Cc1cc(C(=O)NCc2ccc(F)cc2)c2c(C3CCNC3)noc2n1 (centres unmarked),-,5.032
CC(NC(=O)N1CCCN(CC(F)F)CC1)c1ccco1 (centres unmarked),-6.229,11.1
CCn1c(C)cc(C(=O)N2CCCC(n3nc(C)nc3C)C2)c1C (centres unmarked),-16.64,-5.639